Taken from: PubChem BioAssay AID1259331 (Drosophila RNAi Screening Center, 2017)
Assay: 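Knock-downs that alter ATP level after a high zinc chloride dose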 (primary screen). Cells: Drosophila S2R+ cells. Reagents: long dsRNA against Drosophila genes. Duration: 5 days (4 days knock-down, then 1 day zinc). Treatment: zinc chloride at 15 mM final level for 1 day. Detection: 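Total cellular ATP measured by luciferase luminescence as a viability proxy, turned into Z scores from three plate copies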. Scale: mean Z score: higher = more ATP than other wells, better survival under zinc; ATP luminescence: higher = more ATP, more viable cells. Hit rule: 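a reagent is called a hit when its Z score is above 1.5 or below -1.5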. Meaning of the calls: active = hit, ATP up or down; inactive = not a hit.
Here is a random part of about 3,100 reagents tested. 126 of them (4.1%) were called active. 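Calls are per reagent; zinc was so toxic that few knock-downs lowered ATP further, so most hits raise ATP.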 Raw values vary from plate to plate and are shown uncorrected. The numbers tell different reagents against one gene apart. Names joined by + are all predicted targets of the reagent. No sequences are given here. The record does not give: the amount of reagent.

| target | reagent no. | mean Z score | ATP luminescence, replicate 1 | ATP luminescence, replicate 2 | outcome |
| --- | --- | --- | --- | --- | --- |
| glec | 1 | -0.83 | 32599 | 46468 | inactive |
| glec | 2 | -0.478 | 44685 | 41651 | inactive |
| ppk22 | 1 | -0.000175 | 48560 | 49572 | inactive |
| msk | 1 | -0.439 | 25915 | 28039 | inactive |
| msk | 2 | 0.556 | 63633 | 64113 | inactive |
| Targ | 1 | 3.66 | 1.36e5 | 1.42e5 | active |
| alpha-Catr | 1 | -0.238 | 61935 | 42508 | inactive |
| DopEcR | 1 | -0.922 | 21423 | 28005 | inactive |
| GluRIID | 1 | -0.399 | 34034 | 54579 | inactive |
| GluRIID | 2 | -0.573 | 39079 | 53883 | inactive |
| Gr10a | 1 | -0.652 | 43890 | 38770 | inactive |
| Gr10a | 2 | -0.0914 | 51321 | 54647 | inactive |
| et | 1 | -0.338 | 40090 | 37898 | inactive |
| CG6356 | 1 | 0.44 | 36443 | 65657 | inactive |
| CG6356 | 2 | -0.447 | 47909 | 52030 | inactive |
| sns | 1 | 2.33 | 1.24e5 | 1.19e5 | active |
| sns | 2 | -0.215 | 39045 | 44394 | inactive |
| Ctl2 | 1 | 2.11 | 70956 | 1.17e5 | active |
| disp | 1 | -0.711 | 62021 | 48697 | inactive |
| disp | 2 | -0.223 | 52195 | 53996 | inactive |
| PGRP-SB1 | 1 | -0.0278 | 61181 | 66008 | inactive |
| ClC-a | 1 | 4.43 | 69996 | 1.13e5 | active |
| ClC-a | 2 | 0.895 | 47343 | 68949 | inactive |
| ClC-a | 3 | 1.66 | 64662 | 65211 | active |
| Tsp42Ed | 1 | -0.487 | 80752 | 65365 | inactive |
| Tsp42Ed | 2 | 1.47 | 80784 | 86085 | inactive |
| CG30160 + Tsp42Eb | 1 | 0.184 | 42262 | 48132 | inactive |
| CG30160 + Tsp42Eb | 2 | -0.179 | 36842 | 42643 | inactive |
| CG14070 | 1 | -0.764 | 39264 | 33233 | inactive |

11 successive reagents from above, for reference:
| target | reagent no. | mean Z score | ATP luminescence, replicate 1 | ATP luminescence, replicate 2 | outcome |
| --- | --- | --- | --- | --- | --- |
| CG6356 | 1 | 0.44 | 36443 | 65657 | inactive |
| CG6356 | 2 | -0.447 | 47909 | 52030 | inactive |
| sns | 1 | 2.33 | 1.24e5 | 1.19e5 | active |
| sns | 2 | -0.215 | 39045 | 44394 | inactive |
| Ctl2 | 1 | 2.11 | 70956 | 1.17e5 | active |
| disp | 1 | -0.711 | 62021 | 48697 | inactive |
| disp | 2 | -0.223 | 52195 | 53996 | inactive |
| PGRP-SB1 | 1 | -0.0278 | 61181 | 66008 | inactive |
| ClC-a | 1 | 4.43 | 69996 | 1.13e5 | active |
| ClC-a | 2 | 0.895 | 47343 | 68949 | inactive |
| ClC-a | 3 | 1.66 | 64662 | 65211 | active |

More records:
| target | reagent no. | mean Z score | ATP luminescence, replicate 1 | ATP luminescence, replicate 2 | outcome |
| --- | --- | --- | --- | --- | --- |
| NAAT1 | 1 | -0.661 | 52915 | 57313 | inactive |
| NAAT1 | 2 | -0.612 | 45182 | 58866 | inactive |
| Start1 | 1 | 0.062 | 26037 | 40045 | inactive |
| Start1 | 2 | -0.559 | 59723 | 45714 | inactive |
| CG42514 + CG43373 | 1 | 0.367 | 60049 | 64662 | inactive |
| Delta | 1 | -0.258 | 36062 | 62107 | inactive |
| Delta | 2 | 0.469 | 62981 | 61129 | inactive |
| Nach | 1 | -0.103 | 68971 | 75554 | inactive |
| Nach | 2 | -0.0281 | 55684 | 60495 | inactive |
| mthl10 | 1 | -0.224 | 66257 | 67715 | inactive |
| mthl10 | 2 | 0.147 | 41839 | 45440 | inactive |
| mthl10 | 3 | 0.0263 | 47821 | 47943 | inactive |
| CG33116 | 1 | 2.12 | 86273 | 86119 | active |
| Lap1 | 1 | 0.846 | 88705 | 85347 | inactive |
| Lap1 | 2 | -0.00705 | 65176 | 55590 | inactive |
| Mdr65 | 1 | 0.179 | 75364 | 69944 | inactive |
| CG13869 + CG11099 | 1 | -0.322 | 53516 | 51098 | inactive |
| CG43066 | 1 | 0.352 | 72158 | 77371 | inactive |
| CG43066 | 2 | -1.03 | 46760 | 38273 | inactive |
| Arl6IP1 | 1 | -0.311 | 37896 | 51389 | inactive |
| Arl6IP1 | 2 | -0.294 | 51681 | 43674 | inactive |
| CG4301 | 1 | 0.0832 | 67886 | 66961 | inactive |
| CG4301 | 2 | -0.417 | 49075 | 45080 | inactive |
| CG9254 | 1 | 0.107 | 52161 | 40738 | inactive |
| CG2121 | 1 | -0.231 | 27024 | 31827 | inactive |
| CG2121 | 2 | -0.406 | 71436 | 64799 | inactive |
| ppk3 | 1 | 0.22 | 47720 | 37136 | inactive |
| ppk3 | 2 | 0.217 | 68109 | 51372 | inactive |
| Gr36b | 1 | 0.212 | 58043 | 44497 | inactive |
| Gr36b | 2 | 0.0987 | 50481 | 48526 | inactive |
| Kua | 1 | -0.58 | 38187 | 44274 | inactive |
| CG7627 | 1 | -1.99 | 27490 | 28690 | active |
| Or9a | 1 | -0.299 | 60100 | 62107 | inactive |
| Or9a | 2 | 0.52 | 73717 | 65005 | inactive |
| Vha100-1 | 1 | 0.566 | 52281 | 51972 | inactive |
| Vha100-1 | 2 | -0.147 | 49622 | 59809 | inactive |
| CG13810 | 1 | 0.0622 | 48930 | 46023 | inactive |
| CG13810 | 2 | -0.0834 | 56122 | 45552 | inactive |
| unc-5 | 1 | -1.24 | 44017 | 46863 | inactive |
| unc-5 | 2 | 0.014 | 79000 | 74318 | inactive |
| unc-5 | 3 | 0.0929 | 43699 | 44219 | inactive |
